PubChem BioAssay AID686938 – Drosophila RNAi Screening Center – 2013
Screen: 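Fly genes required for calcium entry once internal stores are emptied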 (primary screen). Cell system: Drosophila S2R+ cells. Knock-down reagent: long dsRNA against Drosophila genes, about 0.25 µg dsRNA per well, roughly 10,000 cells. Time to read-out: 5 days of knock-down before the calcium assay. Treatment: thapsigargin (SERCA pump blocker) to empty calcium stores; entry signal taken 4 min after adding it. Measurement: 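Per-well fluo-4 fluorescence in two replicates, unnormalised, measured in resting cells and 4 min after store depletion by the SERCA blocker thapsigargin; ratio of the two present in few wells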. Direction: calcium entry signal: higher = stronger calcium signal after store depletion; resting calcium signal: higher = higher resting calcium signal. Units: calcium entry signal in fluorescence units; resting calcium signal in fluorescence units. Rule for the call: 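Called when the plate z-score of the entry-to-rest ratio, mean of duplicates, falls below −3; wells with low overall dye signal (Fmax z below −2) or more than five off-targets excluded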. Calls: active = strongly reduced calcium entry; inactive = no strong reduction.
In all, the deposit lists about 23,000 reagents; this is a random part of those that have a named target and a result. Of all reagents, 75 (0.33%) got an active call. 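Raw plate signals without normalisation; calls rest on plate z-scores that were not deposited; ratio present for only 364 wells.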 Entries without a mark were called inactive. Names joined by + are all predicted targets of the reagent. No sequences are given here. Not stated in the record: the dose of the treatment.

| gene | dsRNA | calcium entry signal, replicate 1 | calcium entry signal, replicate 2 | resting calcium signal, replicate 1 | resting calcium signal, replicate 2 |
| --- | --- | --- | --- | --- | --- |
| Cyp303a1 | DRSC03300 | 5.05e7 | 3.52e7 | 2.28e7 | 1.78e7 |
| CG18609 | DRSC06775 | 5.96e7 | 5.21e7 | 2.56e7 | 2.26e7 |
| CG18480 | DRSC01957 | 5.96e7 | – | 2.62e7 | – |
| CG7376 | DRSC10829 | 4.61e7 | 3.23e7 | 2.97e7 | 1.52e7 |
| Atg8b | DRSC14501 | 2.53e7 | 2.84e7 | 2.86e7 | 1.18e7 |
| Upf2 | DRSC18218 | 3.09e7 | 3.79e7 | 1.35e7 | 1.92e7 |
| CG16787 | DRSC04282 | 3.58e7 | 4.08e7 | 1.82e7 | 1.91e7 |
| Polr3E | DRSC11880 | 2.08e7 | 2.79e7 | 1.16e7 | 1.37e7 |
| Map205 | DRSC16732 | 3.09e7 | 3.22e7 | 1.49e7 | 1.65e7 |
| CG18178 | DRSC10302 | 5.04e7 | 3.84e7 | 3.17e7 | 1.62e7 |
| CG32751 | DRSC21770 | 3.30e7 | 3.71e7 | 1.79e7 | 1.78e7 |
| CG30046 | DRSC06691 | 2.93e7 | 3.53e7 | 1.48e7 | 1.67e7 |
| CG32040 | DRSC08981 | 4.71e7 | 3.98e7 | 2.60e7 | 1.87e7 |
| CG32040 | DRSC22459 | 3.54e7 | 3.49e7 | 2.00e7 | 1.71e7 |
| Tsp42Eg | DRSC06112 | 4.23e7 | – | 2.12e7 | – |
| CG43109 | DRSC05754 | 3.47e7 | 4.26e7 | 1.64e7 | 2.13e7 |
| CG34155 | DRSC13991 | 4.38e7 | 2.85e7 | 2.00e7 | 1.20e7 |
| Atg10 + CG18853 + CG12822 | DRSC20757 | 4.67e7 | 4.06e7 | 2.33e7 | 2.11e7 |
| CG3513 | DRSC00608 | 3.74e7 | 3.27e7 | 1.77e7 | 1.58e7 |
| Cec-Psi1 | DRSC21956 | 3.81e7 | 9.68e7 | 1.71e7 | 4.53e7 |
| CG13748 | DRSC06419 | 3.72e7 | 3.98e7 | 1.76e7 | 1.71e7 |
| Rsod | DRSC15424 | 2.46e7 | 3.48e7 | 1.40e7 | 1.72e7 |
| mRpS11 | DRSC15732 | 4.54e7 | 4.90e7 | 2.10e7 | 8.15e7 |
| NSD | DRSC15691 | 2.89e7 | 4.16e7 | 1.57e7 | 1.89e7 |
| Hat1 | DRSC12298 | 4.61e7 | 3.21e7 | 2.04e7 | 1.61e7 |
| yellow-g | DRSC08575 | 3.07e7 | 4.91e7 | 1.54e7 | 2.07e7 |
| CG13784 | DRSC00974 | 2.78e7 | 3.29e7 | 1.39e7 | 1.30e7 |
| CG13784 | DRSC02287 | 5.11e7 | – | 2.12e7 | – |
| CG31437 | DRSC13711 | 2.80e7 | 4.95e7 | 1.34e7 | 2.51e7 |
| CG32278 + CG14963 | DRSC22203 | 3.67e7 | 5.66e7 | 1.78e7 | 3.10e7 |
| CG32814 | DRSC17670 | 4.88e7 | 2.95e7 | 2.19e7 | 1.28e7 |
| Prp5 | DRSC19975 | 1.94e7 | 2.21e7 | 1.13e7 | 1.14e7 |
| RanGAP | DRSC22003 | 2.15e7 | 4.03e7 | 1.10e7 | 1.99e7 |
| CG14126 (retired record) | DRSC10130 | 3.02e7 | 4.54e7 | 1.66e7 | 2.06e7 |
| Rnp4F | DRSC18706 | 2.28e7 | 2.64e7 | 1.21e7 | 1.22e7 |
| CG33140 | DRSC06030 | 3.95e7 | – | 2.13e7 | – |
| PGRP-SB1 | DRSC11090 | 3.85e7 | 6.77e7 | 2.01e7 | 2.68e7 |
| Csp | DRSC11860 | 3.26e7 | 4.48e7 | 1.63e7 | 2.89e7 |
| Nup54 | DRSC07282 | 3.34e7 | 3.71e7 | 1.54e7 | 1.74e7 |
| CG17780 + CG17781 | DRSC15266 | 3.66e7 | 4.63e7 | 2.01e7 | 1.92e7 |
| Cpsf5 | DRSC10374 | 4.25e7 | 3.88e7 | 2.99e7 | 1.50e7 |
| CG42383 | DRSC21733 | 3.08e7 | 2.99e7 | 1.67e7 | 1.43e7 |
| CG13842 | DRSC14692 | 5.17e7 | 7.91e7 | 2.16e7 | 2.97e7 |
| CG30486 | DRSC06680 | 3.25e7 | 4.20e7 | 1.71e7 | 1.83e7 |
| RtcB | DRSC03280 | 5.12e7 | 5.03e7 | 2.27e7 | 1.95e7 |
| CG15650 | DRSC04241 | 4.22e7 | 5.40e7 | 2.12e7 | 2.40e7 |
| ver | DRSC10125 | 2.36e7 | 2.90e7 | 1.29e7 | 1.34e7 |
| Cht5 | DRSC16470 | 1.98e7 | 4.25e7 | 9.47e6 | 2.16e7 |
| Ir67a | DRSC09897 | 2.83e7 | 3.25e7 | 1.48e7 | 1.41e7 |
| AP-2mu | DRSC14090 | 7.54e7 | 2.72e7 | 3.19e7 | 1.39e7 |
| cpo | DRSC13265 | 4.38e7 | 3.18e7 | 2.09e7 | 1.52e7 |
| cpo | DRSC13273 | 4.87e7 | 3.09e7 | 2.58e7 | 1.65e7 |
| cpo | DRSC14503 | 1.92e7 | 2.65e7 | 1.32e7 | 5.18e7 |
| cpo | DRSC15327 | 2.38e7 | 2.66e7 | 1.42e7 | 4.88e7 |
| cpo | DRSC16926 | 2.85e7 | 2.96e7 | 6.56e7 | 1.71e7 |
| cpo | DRSC23006 | 5.38e7 | 3.17e7 | 2.64e7 | 1.48e7 |
| CG32391 | DRSC08865 | 3.56e7 | 6.95e7 | 1.70e7 | 2.96e7 |
| CG17571 | DRSC01768 | 2.73e7 | 3.74e7 | 1.26e7 | 1.58e7 |
| CG17571 | DRSC03755 | 4.29e7 | 4.87e7 | 2.03e7 | 2.16e7 |

A portion of the results above, for reference:
| gene | dsRNA | calcium entry signal, replicate 1 | calcium entry signal, replicate 2 | resting calcium signal, replicate 1 | resting calcium signal, replicate 2 |
| --- | --- | --- | --- | --- | --- |
| Map205 | DRSC16732 | 3.09e7 | 3.22e7 | 1.49e7 | 1.65e7 |
| CG18178 | DRSC10302 | 5.04e7 | 3.84e7 | 3.17e7 | 1.62e7 |
| CG32751 | DRSC21770 | 3.30e7 | 3.71e7 | 1.79e7 | 1.78e7 |
| CG30046 | DRSC06691 | 2.93e7 | 3.53e7 | 1.48e7 | 1.67e7 |
| CG32040 | DRSC08981 | 4.71e7 | 3.98e7 | 2.60e7 | 1.87e7 |
| CG32040 | DRSC22459 | 3.54e7 | 3.49e7 | 2.00e7 | 1.71e7 |
